Test results published in article PMC11116813.
No constants are given. Whether binding was seen depends on the method and setting. For part of these data: Binding seen in cells or lysates may run through a third protein. Some results given as binding are weak or reduced against the parent protein; the word gives no strength. For part of these data: Sequences can lack the tags named with a protein.

By UniProt entry, the sequences of proteins in these tests, tags left out.
UniProt P45973: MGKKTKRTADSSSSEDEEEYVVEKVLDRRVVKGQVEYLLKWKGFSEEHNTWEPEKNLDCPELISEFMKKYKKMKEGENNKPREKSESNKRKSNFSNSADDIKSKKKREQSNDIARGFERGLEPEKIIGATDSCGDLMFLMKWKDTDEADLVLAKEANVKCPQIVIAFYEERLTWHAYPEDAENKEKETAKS

Assays:
[1] = target: human INCENP -6Myc full-length wild type, expressed in HeLa cells (human) (UniProt Q9NQS7); test: co-IP; Extracts of HeLa cells expressing INCENP -6Myc versions (mitotic, STLC; also G2, RO3306, in Fig. S5D); IP with anti-Myc magnetic beads, 1 h at 4°C, lysis buffer with 150 mM NaCl; immunoblot
[2] = target: T1, custom-made peptide of hINCENP (159-178) (human) (UniProt Q9NQS7); test: condition: 10 μM peptide in the cell, 100 μM HP1α dimer in the syringe; ITC; VP-ITC, 10 μM INCENP peptide or fragment in the cell, 100 μM HP1α full-length or CSD dimer in the syringe, 20°C, 20 mM NaPO4 pH 7.0, 150 mM NaCl, 1 mM DTT (Fig. 2D, Fig. 3D and E); one-site model; both purified
T1 sequence (peptide): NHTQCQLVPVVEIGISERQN

[3] = target: T2, human INCENP (121-270) PVI_3A -6His, GST removed (human) (UniProt Q9NQS7); test: condition: 10 μM fragment in the cell, 100 μM HP1α dimer in the syringe; ITC; VP-ITC, 10 μM INCENP fragment in the cell, 100 μM HP1α dimer in the syringe, 20°C, 10 mM Tris pH 8.0, 150 mM NaCl, 1 mM DTT (Fig. 2C); one-site model; both purified
T2 sequence: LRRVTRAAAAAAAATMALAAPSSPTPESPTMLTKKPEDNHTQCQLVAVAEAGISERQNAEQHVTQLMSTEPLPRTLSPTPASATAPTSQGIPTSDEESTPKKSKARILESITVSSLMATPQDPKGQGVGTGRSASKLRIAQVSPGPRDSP

Substance	binding [1]	binding [2]	binding [3]
HP1α, endogenous in HeLa cell extracts (from UniProt P45973 1-191)	binds	–	–
full-length human HP1α WT (hHP1α), recombinant (from UniProt P45973 1-191)	–	no binding	no binding
